Record: PubChem BioAssay AID1259308 (NCATS, 2017)

Assay: 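Candidate targets for better recombinant protein yield in mammalian cells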 (primary screen)
System: human HEK293 embryonic kidney cells stably expressing firefly luciferase (HEK-CMV-Luc2-Hygro)
Reagents: single siRNA against human genes, 0.8 pmol siRNA per well
Timing: 72 h
Measurement: 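Reporter luminescence and viable-cell signal on separate replicate plates, given as percent of non-targeting control and median/MAD z-scores, plus per-cell luciferase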
Direction: total luciferase, z-score and total luciferase, % of control: higher = more reporter protein produced
Call rule: 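An siRNA counts as active if its total luciferase robust z-score exceeds 3; genes with two or more such siRNAs out of three were retested with fresh siRNAs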
Meaning of the calls: active = raised luciferase; inactive = no rise
Here is one part, drawn at random, of about 59,000 deposited reagents. Over the whole deposit, about 1,510 (2.6%) got an active call. 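Calls use total luciferase alone and ignore viability, so some active siRNAs may act by altering cell number.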 Reagents against one gene are numbered here. Not all columns of the deposit are shown.

ZNF644 (GeneID 84146) #1
- total luciferase, z-score: 0.409
- total luciferase, % of control: 90
- call: inactive

ZNF644 (GeneID 84146) #2
- total luciferase, z-score: -1.69
- total luciferase, % of control: 48.3
- call: inactive

ZNF644 (GeneID 84146) #3
- total luciferase, z-score: 0.261
- total luciferase, % of control: 87.1
- call: inactive

C4orf17 (GeneID 84103) #1
- total luciferase, z-score: 0.894
- total luciferase, % of control: 99.7
- call: inactive

C4orf17 (GeneID 84103) #2
- total luciferase, z-score: 0.196
- total luciferase, % of control: 85.8
- call: inactive

C4orf17 (GeneID 84103) #3
- total luciferase, z-score: 1.21
- total luciferase, % of control: 106
- call: inactive

DUS4L (GeneID 11062) #1
- total luciferase, z-score: 1.55
- total luciferase, % of control: 113
- call: inactive

DUS4L (GeneID 11062) #2
- total luciferase, z-score: 0.898
- total luciferase, % of control: 99.7
- call: inactive

DUS4L (GeneID 11062) #3
- total luciferase, z-score: -0.452
- total luciferase, % of control: 72.9
- call: inactive

PTCHD1 (GeneID 139411) #1
- total luciferase, z-score: -1.91
- total luciferase, % of control: 43.9
- call: inactive

PTCHD1 (GeneID 139411) #2
- total luciferase, z-score: 0.476
- total luciferase, % of control: 91.4
- call: inactive

PTCHD1 (GeneID 139411) #3
- total luciferase, z-score: 0.59
- total luciferase, % of control: 93.6
- call: inactive

ADAM10 (GeneID 102) #1
- total luciferase, z-score: -1.18
- total luciferase, % of control: 58.4
- call: inactive

ADAM10 (GeneID 102) #2
- total luciferase, z-score: 0.773
- total luciferase, % of control: 97.3
- call: inactive

ADAM10 (GeneID 102) #3
- total luciferase, z-score: -0.315
- total luciferase, % of control: 75.6
- call: inactive

ZWINT (GeneID 11130) #1
- total luciferase, z-score: 3.51
- total luciferase, % of control: 152
- call: active

ZWINT (GeneID 11130) #2
- total luciferase, z-score: -0.258
- total luciferase, % of control: 76.7
- call: inactive

ZWINT (GeneID 11130) #3
- total luciferase, z-score: 0.915
- total luciferase, % of control: 100
- call: inactive

NFYC (GeneID 4802) #1
- total luciferase, z-score: 1.01
- total luciferase, % of control: 102
- call: inactive

NFYC (GeneID 4802) #2
- total luciferase, z-score: 2.44
- total luciferase, % of control: 130
- call: inactive

NFYC (GeneID 4802) #3
- total luciferase, z-score: 1.22
- total luciferase, % of control: 106
- call: inactive

2 of these entries, set out differently.
| Target gene | siRNA no. | total luciferase, z-score | total luciferase, % of control | call |
| --- | --- | --- | --- | --- |
| C4orf17 (GeneID 84103) | 3 | 1.21 | 106 | inactive |
| DUS4L (GeneID 11062) | 1 | 1.55 | 113 | inactive |

Next entries follow.
SYN2 (GeneID 6854) #1
- total luciferase, z-score: -0.422
- total luciferase, % of control: 73.5
- call: inactive

SYN2 (GeneID 6854) #2
- total luciferase, z-score: 0.676
- total luciferase, % of control: 95.3
- call: inactive

SYN2 (GeneID 6854) #3
- total luciferase, z-score: -1.49
- total luciferase, % of control: 52.2
- call: inactive

KBTBD4 (GeneID 55709) #1
- total luciferase, z-score: 3.51
- total luciferase, % of control: 152
- call: active

KBTBD4 (GeneID 55709) #2
- total luciferase, z-score: 0.678
- total luciferase, % of control: 95.4
- call: inactive

KBTBD4 (GeneID 55709) #3
- total luciferase, z-score: 0.605
- total luciferase, % of control: 93.9
- call: inactive

LSM12 (GeneID 124801) #1
- total luciferase, z-score: 0.0961
- total luciferase, % of control: 83.8
- call: inactive

LSM12 (GeneID 124801) #2
- total luciferase, z-score: -0.0678
- total luciferase, % of control: 80.5
- call: inactive

LSM12 (GeneID 124801) #3
- total luciferase, z-score: 0.244
- total luciferase, % of control: 86.7
- call: inactive

HEATR1 (GeneID 55127) #1
- total luciferase, z-score: 1.34
- total luciferase, % of control: 109
- call: inactive

HEATR1 (GeneID 55127) #2
- total luciferase, z-score: -0.923
- total luciferase, % of control: 63.5
- call: inactive

HEATR1 (GeneID 55127) #3
- total luciferase, z-score: -0.451
- total luciferase, % of control: 72.9
- call: inactive
